# PubChem BioAssay AID2417 (National Center for Advancing Translational Sciences (NCATS), 2010)
# Out of some 140,000 compounds screened, about 4,300 (3.1%) were called active. This list was built around the results that the source calls inconclusive (neither active nor inactive); the mix of calls is not that of the screen.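 Rule for the calls: active = readout at or below -70, meaning at least 70% loss of cells showing the perinucleolar compartment, a nuclear body marking cancer cells; inconclusive = readout between -30 and a set limit; inactive = the rest.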 The source holds several records for some structures; these can differ, active in one and inactive in another.
# Assay: High Content Assay for Compounds that inhibit the Assembly of the Perinucleolar Compartment;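 note: plate controls were DMSO wells for no effect and camptothecin positive control wells for full effect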
# Conditions: PC3M PTB-GFP, PNC prevalence imaging, 16 h; at 10 µM; active compounds read low
# Method in brief: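 Compounds are pinned in duplicate onto adhered PC3M cells stably expressing GFP-tagged PTB and incubated 16 h at 37 C. Cells are then fixed, nuclei stained with Hoechst, and PNC-positive cells counted.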
row,Compound,"activity change (PNC), negative = inhibition"
1,CCCCn1c(-c2ccc(Cl)cc2)nc2c(=O)n(C)c(=O)[nH]c21,inconclusive: -51.2%
2,Cc1nc(Oc2ccccc2)c2oc3ccccc3c2n1,inconclusive: -54.8%
3,CNCC(O)Cn1c(C(F)(F)F)nc2ccccc21 (centres undefined),active: -100%
4,O=C1C(=Cc2ccco2)C(=O)c2ccccc21,inactive: 32.3%
5,O=C(CSc1nnc(-c2ccc(Cl)cc2)n1Cc1ccco1)c1cccs1,inconclusive: -55.8%
6,O=C(c1ccccc1-c1ccccc1)N1CCOCC1,inactive: -12%
7,O=C(C/C(=N\NC(=O)c1ccccc1Br)C(F)(F)F)c1cccs1,inactive: -25.7%
8,CCOC(=O)c1ccc(-n2c(N)c(C(=O)NCC3CCCO3)sc2=S)cc1 (centres undefined),inconclusive: -40.9%
9,CCOc1ccccc1Oc1c(C)oc2c(CN3CCN(C)CC3)c(O)ccc2c1=O,inconclusive: -70.9%
10,CCOc1ccc(CCNC(=O)Cn2cccc2C(=O)c2ccccc2)cc1OCC,inconclusive: -56.9%
11,Cn1c(=O)c([N+](=O)[O-])c(NCc2ccccc2)c2ccccc21,inconclusive: -32.2%
12,C[C@H](C(=O)C=[N+]=[N-])N1C(=O)c2ccccc2C1=O,inconclusive: -56.7%
13,Cc1ccc(-c2noc(CCC(=O)NCCCN3CCN(c4cccc(Cl)c4)CC3)n2)cc1,inconclusive: -38.5%
14,CCC(C)N1CCCCC1C(=O)Nc1c(C)cc(C)cc1C (centres undefined),inconclusive: -37.9%
15,O=C(N/N=C/c1ccc(Cl)cc1)c1sccc1OCc1ccc(F)cc1,active: -119%
16,Cc1onc(-c2ccccc2Cl)c1C(=O)Nc1cccc(-c2cn3cccnc3n2)c1,inconclusive: -62.7%
17,COc1ccccc1C1C2CCCCC2(O)CCN1CC(=O)Nc1ccccc1 (centres undefined),active: -104%
18,O=C(NCc1cccnc1)c1sc2cc(Cl)ccc2c1Cl,inconclusive: -30.7%
19,CCc1nc2ccccc2c(=O)n1NC(=O)c1c(O)c2cccc3c2n(c1=O)CCC3,active: -83.4%
20,COc1ccc(N/N=C(\C#N)C(N)=O)cc1,inconclusive: -46%

row,Compound,"activity change (PNC), negative = inhibition"
1,O=C1CCC(C(=O)OCc2c(Cl)cccc2Cl)N1 (centres undefined),inconclusive: -45.4%
2,CC1=CC(C)(C)n2c(O)c(N=NC(N)=S)c3cccc1c32,inconclusive: -77.7%
3,CCn1c(O)c(C2=NCCCC2)c2ccccc21,inconclusive: -57.7%
4,O=C(NN=C1CCN(Cc2ccccc2)CC1)C(O)c1ccccc1 (centres undefined),inactive: 72.3%
5,Cc1occc1-c1nnc(SCc2nc3ccccc3c(=O)n2CC#N)n1C,inconclusive: -59.5%
6,CCOc1cc(C2C(C(=O)c3ccc(C)o3)=C(O)C(=O)N2CCc2ccccc2)ccc1O (centres undefined),inactive: 59.2%
7,C=C(Cl)COc1ccc2c(CC)cc(=O)oc2c1,inconclusive: -30.7%
8,Cc1ccc2nc(-c3ccccc3O)c(Nc3ccc4c(c3)OCCO4)n2c1,active: -113%
9,CN(C)CCCN1c2ccccc2Sc2ccc(Cl)cc21,active: -110%
10,CCc1ccc(-c2nn(Cc3ccccc3)cc2/C=C/C(=O)O)cc1,inconclusive: -58%
11,Cc1ccc(S(=O)(=O)N2CCN(C(=O)COC(=O)c3cc(C)oc3C)CC2)cc1,inconclusive: -38%
12,CN(C(=O)c1ccc2c(c1)OCO2)C1(C(=O)NC2CCCC2)CCCCC1,inactive: -19.4%
13,Cc1c(Nc2nc(-c3ccccc3)cs2)c(=O)n(-c2ccccc2)n1C,inconclusive: -33.9%
14,Cc1cccc(CSc2ncc(CO)n2C)c1,inconclusive: -62.4%
15,COc1ccccc1NC(=O)C1=C(C)NC(=O)NC1c1ccc(C)cc1 (centres undefined),inactive: -4.72%
16,CCOc1ccc(S(=O)(=O)N2CCN(C(=O)c3sccc3C)CC2)cc1,inactive: 59.5%
17,O=C(NC(c1ccccc1)c1cc(Cl)c2cccnc2c1O)c1cccnc1 (centres undefined),inactive: -7.06%
18,Cc1cc(N(C)C)nc(SC(C)C)n1,inactive: 6.88%
19,Cc1cccc(C)c1OCC(=O)Nc1cccc(NC(=O)c2ccco2)c1,active: -119%
20,COc1ccc(C(=O)N(Cc2ccco2)Cc2cccs2)c(O)c1,inconclusive: -31.2%

row,Compound,"activity change (PNC), negative = inhibition"
1,CCOc1ccccc1N(CC(=O)Nc1ccc2c(c1)OCCO2)S(C)(=O)=O,active: -125%
2,COc1ccc(-n2c(=O)[nH]cc(C(=O)Nc3ccccc3)c2=O)cc1,inconclusive: -38.7%
3,O=C1c2ccccc2S(=O)(=O)N1CC(O)COc1ccc(Cl)cc1 (centres undefined),inactive: -16.7%
4,COc1ccccc1NS(=O)(=O)c1cccc(NC(=O)Nc2cccc(Cl)c2)c1,active: -85.8%
5,CC1CN(C(=O)CSc2nc(-c3ccccc3)cs2)CC(C)O1 (centres undefined),inactive: 15.7%
6,Cc1cc(Nc2ccccc2)nc(N2CCOCC2)n1,inconclusive: -43.4%
7,Cc1c(O)c2c3c(cccc3c1O)C(=O)N(c1ccccc1)C2=O,inconclusive: -44.7%
8,COC(=O)c1ccc(NC(=O)C2CCCN(S(=O)(=O)c3cnc[nH]3)C2)cc1 (centres undefined),inactive: 20.6%
9,CCOc1cc(/C=C2\NC(=S)N(c3c(C)n(C)n(-c4ccccc4)c3=O)C2=O)ccc1O,inconclusive: -59.2%
10,Cc1nnc(SCC(=O)Nn2cnnc2)s1,inconclusive: -73.9%
11,NS(=O)(=O)c1ccc(CCN2C(=O)/C(=C\c3ccc(Cl)cc3)SC2=S)cc1,active: -83.7%
12,COc1ccccc1NC(=O)Cn1nnc(-c2ccccc2NC(=O)c2cccs2)n1,inconclusive: -52.2%
13,CCOC(=O)c1ccc(NS(=O)(=O)c2cccc3nsnc23)cc1,inactive: -11.5%
14,COCC(=O)N/N=C/c1ccc(Sc2nc3ccccc3s2)o1,inactive: 69.6%
15,COc1ccc(OC)c(NC(=O)COC(=O)Cc2ccc(-c3ccccc3)cc2)c1,inconclusive: -41.7%
16,COc1ccc(C(C)=O)cc1CSc1nnc(Nc2ccc(C)cc2)s1,active: -113%
17,Cc1ccc(CN2C(=O)CCC2C(=O)NCCCN2CCCC(C)C2)cc1 (centres undefined),inconclusive: -42%
18,Cc1ccccc1SCC(=O)N1CCN(c2ccc(C(F)(F)F)cn2)CC1,inactive: -28.4%
19,Cc1nnc(NC(=O)CCC(=O)NCc2ccco2)s1,inactive: 4.47%

# Filtered by structure, the entries above containing a cyano group
row,Compound,"activity change (PNC), negative = inhibition"
20,COc1ccc(N/N=C(\C#N)C(N)=O)cc1,inconclusive: -46%
5,Cc1occc1-c1nnc(SCc2nc3ccccc3c(=O)n2CC#N)n1C,inconclusive: -59.5%
